# Library screen at single concentrations

Values are the deposited “Percent Effect”, in %.
How 0% and 100% were set is not recorded. Most values in the screen are low, and negative values occur.
This is an unselected part of the compounds tested.
Two or more numbers in one place are separate tests of the same structure; such repeats can differ widely.

A: 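Phenotypic screen: M. tuberculosis growth, glucose 7H9 medium, 3 days; the read-out is not stated. Concentration: 50 µM. The record gives no direction; compounds that gave an IC50 in retests scored well above the rest, so higher reads as more growth inhibition. Size under these conditions: about 69,000 compounds, about 760 of them at 50% or above in at least one test.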
B: 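Whole-cell growth test on Mycobacterium tuberculosis, read after 4 days in a medium based on cholesterol and the lipid DPPC; the read-out is not stated. Tested at 50 µM. Higher reads as more growth inhibition (inferred: compounds with an IC50 in retests scored well above the rest). Of about 69,000 compounds tested this way, about 370 (0.54%) reached 50% or more in at least one test.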

| # | Compound | A | B |
|---|---|---|---|
| 1 | `CC(C#N)CSc1ccccc1NCC(=O)Nc1ccc(F)cc1` (stereo not given) | 5.128 and -8.788 | -18.84 |
| 2 | `O=C(O)C(F)(F)F.[H][C@@]12OCCN(CCOCc3ccccc3)[C@@]1([H])CC[C@@H]2OC` | -5.206 | -45.81 |
| 3 | `COc1c(C2CCCN2CC(=O)N(C)Cc2ccco2)c(C)nn1C` (stereo not given) | -1.813 | 15.15 |
| 4 | `COc1ccc(-c2nc(CN3CCc4cncnc4C3)no2)cc1` | -5.386 | -7.256 |
| 5 | `CCCc1nnsc1C(=O)NCC1CCN(S(C)(=O)=O)CC1` | -0.6149 and 15.06 | 1.06 |
| 6 | `COc1ccc(CN2C[C@@H](CN(C)C)[C@@H](CO)C2)cc1OC` | 5.108 | 10.82 |
| 7 | `CCn1cc(CN2CCCN(C(=O)c3cc(C)no3)CC2)cn1` | -42.62 | 0.7927 |
| 8 | `CC(C)c1nnc2n1CCN(C(=O)COc1ccc(C(N)=O)cc1)C2` | 47.3 | 6.22 |
| 9 | `O=C(O)C(F)(F)F.[H][C@@]12CN(Cc3ccc(C)o3)CCC[C@]1(C(=O)O)CN(c1ncccn1)C2` | -31.7 | -0.4947 |
| 10 | `CCC(C)(CC(=O)O)NC(=O)Cc1ccccc1F` (stereo not given) | 9.082 | 0.8225 |
| 11 | `O=C(NCC1CC1)Nc1ccc(OCC(F)(F)F)nc1` | 11.12 | 9.043 |
| 12 | `O=C(O)C(F)(F)F.O=S(=O)(c1cccs1)N1CCCn2cnc(CO)c2C1` | -13 and 1.552 | -15.07 |
| 13 | `CN(Cc1cnn(C)c1)C(=O)c1cc(C(F)(F)F)n(C)n1` | 1.128 | 4.101 |
| 14 | `COc1cccc(-c2noc(C3CCN(Cc4cn(C)nc4C)C3)n2)c1` (stereo not given) | 42.27 | 16.12 |
| 15 | `Cc1cc(-c2nn(C)c(Cl)c2CN2CCOCC2CC(N)=O)no1` (stereo not given) | -17.31 | -70.68 |
| 16 | `COCCc1noc(CN2CCOC(Cn3cc(C)cn3)C2)n1` (stereo not given) | -10.19 | -19.17 |
| 17 | `Cc1nc2ccccc2nc1CN1CCOC(Cn2cccn2)C1` (stereo not given) | 20.18 | -9 |
| 18 | `CCc1noc(C)c1C(=O)N1CCCN(Cc2csc(C)n2)CC1` | -17.79 | 5.866 |
| 19 | `[H][C@@]12C[C@H](c3noc(C)n3)O[C@@]1([H])CCN(C(=O)c1ccoc1C)C2` | 16.18 and 2.26 | -2.734 |
| 20 | `Cc1nc(CC(=O)N2CCCN(c3ccc(C#N)cc3)CC2)cs1` | -5.925 and -1.204 | -3.872 |
| 21 | `CCN(C)c1ncnc2c1CCN(Cc1ccncc1)CC2.O=C(O)C(F)(F)F.O=C(O)C(F)(F)F.O=C(O)C(F)(F)F` | 10.78 | 8.557 |
| 22 | `CC(C)C(=O)NC1CCCN(C(=O)c2ccc(O)c(Cl)c2)C1` (stereo not given) | 20.93 | 5.362 |
| 23 | `Cc1nc(CN2CCN(C(=O)COCc3ccccc3)CC2)no1` | 26.95 | 11.87 |
| 24 | `CC1=CCN(S(=O)(=O)c2cccc(C(=O)N3CCCN(C)CC3)c2)CC1` | -5.819 | -5.466 |
| 25 | `O=C(CN1C(=O)CCC1=O)N1CCOC2(CCOCC2)C1` | -54.9 | -15.49 |
| 26 | `Cn1cnc2c1CCN(C(C(=O)N1CCCCC1)c1ccccc1)C2` (stereo not given) | 10.46 | 1.705 |
| 27 | `OCCN1CCN(Cc2cnc3c(-c4ccccc4)cnn3c2)CC1` | 1.747 and -31.04 | -16.36 |
| 28 | `[H][C@]12CCN(Cc3cccc(C)n3)C[C@@]1([H])OCCN(c1ccc(C)nn1)C2` | 18.17 | -3.426 |
| 29 | `CNC(=O)N1CCC2(CC1)CN(C)Cc1cc(F)ccc12.Cl` | -4.826 and -3.388 | -11.46 |
| 30 | `CNS(=O)(=O)c1ccc(C(=O)NCCc2ccccn2)cc1` | -28.13 | -15.22 |
| 31 | `CC(C)CCC(=O)N1CCN(C(=O)c2ccc(-n3cccn3)cc2)CC1` | -14.5 | -22.38 |
| 32 | `CC(=O)N1CCC(c2cccc(-c3cccc(C(=O)O)c3)n2)CC1` | -5.161 | 5.797 |
| 33 | `Cc1cc(C)n(CC2CCCN2C(=O)c2nccc3ccccc23)n1` (stereo not given) | -6.045 | -10.27 |
| 34 | `O=S(=O)(Cc1ccccc1F)Cc1nnnn1C1CC1` | 20.61 | -1.171 |
| 35 | `O=C(C1CC1)N1CCc2nc(C3CCN(C(=O)C4CC4)C3)nc(O)c2C1` (stereo not given) | -8.4 | -19.45 |
| 36 | `Cc1nn(C)c(C)c1CN(Cc1cccn1-c1ccccn1)C(C)C` | -13.06 | -3.349 |
| 37 | `COc1cc(N(C)CCC(O)c2ccccc2)ncn1` (stereo not given) | 22.77 and 16.28 | 26.47 |
| 38 | `Cn1cc(-c2cc(-c3cnn(C)c3)n(CC(=O)NC3CC3)n2)cn1` | 8.971 | 6.328 |
| 39 | `CC(NC(=O)Nc1cccnc1N1CCOCC1)c1ccccn1` (stereo not given) | 2.587 and -22.25 | -9.613 |
| 40 | `CN1CCc2nc(N(C)C)nc(N3CCC(O)CC3)c2C1` | 17.67 and 2.677 | 0.668 |
| 41 | `O=C(Cc1ccc(F)cc1)NCC(O)(c1cccs1)C1CC1` (stereo not given) | 4.528 and -4.171 | -2.227 |
| 42 | `O=C(O)C(F)(F)F.O=C(O)C(F)(F)F.[H][C@@]12CN(Cc3cccs3)C[C@@]1([H])N(Cc1cccnc1)C(=O)CO2` | -27.3 | -19.7 |
| 43 | `O=C(NCC1COCCO1)c1csc(Cc2ccccc2)n1` (stereo not given) | 15.15 | -9.218 |
| 44 | `O=C(CCc1nc2cccnc2[nH]1)Nc1cccnc1` | 3.993 | 1.52 |
| 45 | `COC(=O)C1CCCN1C(=O)c1ccc(Br)cc1F` (stereo not given) | -56.42 | -42.58 |
| 46 | `O=C(O)C(F)(F)F.[H][C@@]12CN(C(=O)c3cnccn3)C[C@]1([H])C(=O)N(Cc1cccc(C)n1)C2` | -1.551 | -3.459 |
| 47 | `COc1ncccc1CNC(=O)Nc1ccc(N(C)C)nc1` | 2.295 | -7.279 |
| 48 | `CNc1ncc(C(=O)N2CCOC(C(=O)NC3CCCC3)C2)cn1` (stereo not given) | 0.7713 | -5.382 |
| 49 | `Clc1ccc(OCCNC2(c3ccc(Br)cc3)CCOCC2)cc1` | 24.69 | 11.68 |
| 50 | `CC(Cn1cccn1)NC(=O)NCc1cccs1` (stereo not given) | 19.36 | -0.1705 |
| 51 | `CCOCC(O)CN1CCN(C(=O)c2ccccc2Cl)CC1` (stereo not given) | 14.24 | -7.269 |
| 52 | `CCc1nn(C)c(Cl)c1CN1CCC2(C1)CN(C)C(=O)O2` (stereo not given) | 24.85 | 2.604 |
| 53 | `CC1CN(C)c2ccccc2CN1C(=O)c1ccc[nH]1` (stereo not given) | 10.09 and -7.36 | -15.91 |
| 54 | `CNC(=O)c1cn2cc(-c3ccc(F)cc3)n(CC=C(C)C)c(=O)c2n1` | 2.587 and -5.391 | 3.275 |
| 55 | `Cc1cc(-n2cncn2)ccc1C(=O)Nc1ccc(N2CCCC2)cn1` | -0.1695 and 3.404 | 8.588 |
| 56 | `COc1ccc(NCC2(O)CCNCC2)cc1OC` | 15.14 and -4.821 | -13.6 |
| 57 | `Cc1ccc(OCCCNC(=O)C(C)Sc2nncn2C)cc1` (stereo not given) | -29.77 | -16.17 |
| 58 | `O=C(NC[C@H]1CC[C@H](c2ccnc3ncnn32)CC1)C1CC1` | 68.63 | -17.22 |
| 59 | `COc1ccc(C2CCCN2C(=O)c2cc(C(C)C)on2)cc1` (stereo not given) | 9.774 | 1.304 |
| 60 | `c1ccc(Oc2nccnc2C2CCN(C3CCOCC3)CC2)cc1` | 8.22 | 1.734 |
| 61 | `CCCC(NC(=O)c1cc(C)n(C2CC2)c1C)c1nnn[nH]1` (stereo not given) | 18.82 | 20.39 |
| 62 | `CC(O)CNC(=O)Nc1ccc(Br)cc1Br` (stereo not given) | -17.05 | -1.404 |
| 63 | `CCc1ccc2nc(C)cc(C(=O)NCc3csc(N(C)C)n3)c2c1` | -32.82 | -21.37 |
| 64 | `COc1ccccc1NC(=O)N1CCCC1c1ccco1` (stereo not given) | 33.42 | 17.2 |
| 65 | `CC(C)c1n[nH]c(C2CN(Cc3ccno3)CCO2)n1` (stereo not given) | 22.63 | 8.805 |
| 66 | `[H][C@@]12CCN(C[C@@H]1CN1CCCCC1)[C@@H](CNS(=O)(=O)c1ccccc1)C2` | 6.316 and -15.07 | 9.467 |
| 67 | `O=C(c1ccccc1F)N(CCCO)S(=O)(=O)c1cccs1` | 11.67 | 13.45 |
| 68 | `Cc1ocnc1C(=O)N1CCC2(CC1)c1nc[nH]c1CCN2CC(C)C` | -6.481 | 17.28 |
| 69 | `Cc1cccc(N2CCC(N3CCC4(CN(C)C(=O)O4)C3)CC2)c1C` (stereo not given) | -1.858 | 13.49 |
| 70 | `[H][C@@]12CN(S(=O)(=O)C(C)C)C[C@]1([H])N(CCc1cccc(Cl)c1)C(=O)O2` | 12.92 | 2.824 and 0.1233 |
| 71 | `CC(C)c1nc(CN(C)C(=O)c2ccc3c(c2)OCC(=O)N3)cs1` | -33.21 | 0.7112 |
| 72 | `O=C(O)C(F)(F)F.O=C(c1cc[nH]n1)N1CCC(F)(F)C2(CCN(c3ccccn3)C2)C1` (stereo not given) | -12.16 and -40.44 | -5.22 and -9.125 |
| 73 | `CC(=O)c1ccc(-n2ccc3nc(N4CCCC4)ncc3c2=O)cc1` | -2.107 | 1.007 and -12.79 |
| 74 | `Cc1sc(CS(C)(=O)=O)nc1-c1ccc(Cl)cc1` | 5.88 | -3.5 |
| 75 | `O=C(O)C(F)(F)F.O=C(O)C(F)(F)F.[H][C@@]12CCCO[C@]1([H])[C@H](N(C)Cc1cccnc1)CN2C(=O)NC1CC1` | -25.87 | -15.77 |
| 76 | `Cc1noc(C(C)N2CCN(CCN3CCCC3=O)CC2)n1` (stereo not given) | -3.434 and -25.92 | 13.05 |

Once more, the final 7:

Compound,A,B
[H][C@@]12CN(S(=O)(=O)C(C)C)C[C@]1([H])N(CCc1cccc(Cl)c1)C(=O)O2,12.92,2.824 and 0.1233
CC(C)c1nc(CN(C)C(=O)c2ccc3c(c2)OCC(=O)N3)cs1,-33.21,0.7112
O=C(O)C(F)(F)F.O=C(c1cc[nH]n1)N1CCC(F)(F)C2(CCN(c3ccccn3)C2)C1 (stereo not given),-12.16 and -40.44,-5.22 and -9.125
CC(=O)c1ccc(-n2ccc3nc(N4CCCC4)ncc3c2=O)cc1,-2.107,1.007 and -12.79
Cc1sc(CS(C)(=O)=O)nc1-c1ccc(Cl)cc1,5.88,-3.5
O=C(O)C(F)(F)F.O=C(O)C(F)(F)F.[H][C@@]12CCCO[C@]1([H])[C@H](N(C)Cc1cccnc1)CN2C(=O)NC1CC1,-25.87,-15.77
Cc1noc(C(C)N2CCN(CCN3CCCC3=O)CC2)n1 (stereo not given),-3.434 and -25.92,13.05

Source: ChEMBL document CHEMBL3988442, “University of Dundee, Small-Polar-MMV Screening Library” (2021).